# Measurements from the supplement of paper PMC6411743.
# Protein sequences, listed by entry. Tags and fused reporters are not part of them. Lines headed by an entry give the natural chain unless they say otherwise; changes in a name come on top.
# UniProt Q969P0: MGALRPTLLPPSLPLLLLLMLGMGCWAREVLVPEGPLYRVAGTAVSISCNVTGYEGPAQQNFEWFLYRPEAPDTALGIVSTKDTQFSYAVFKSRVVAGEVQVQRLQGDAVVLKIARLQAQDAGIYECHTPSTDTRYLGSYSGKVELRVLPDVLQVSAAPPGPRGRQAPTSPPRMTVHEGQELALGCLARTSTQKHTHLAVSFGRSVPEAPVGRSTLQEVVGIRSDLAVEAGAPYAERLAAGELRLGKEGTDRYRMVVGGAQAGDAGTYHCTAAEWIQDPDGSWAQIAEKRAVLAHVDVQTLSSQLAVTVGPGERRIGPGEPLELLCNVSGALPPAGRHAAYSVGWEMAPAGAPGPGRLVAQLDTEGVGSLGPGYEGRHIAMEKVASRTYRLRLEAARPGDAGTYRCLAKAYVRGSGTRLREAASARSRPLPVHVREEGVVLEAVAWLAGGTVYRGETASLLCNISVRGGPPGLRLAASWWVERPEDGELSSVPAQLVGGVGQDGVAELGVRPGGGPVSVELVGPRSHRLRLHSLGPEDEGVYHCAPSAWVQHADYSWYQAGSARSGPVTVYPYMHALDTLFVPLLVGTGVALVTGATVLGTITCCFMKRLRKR
# UniProt Q96F63: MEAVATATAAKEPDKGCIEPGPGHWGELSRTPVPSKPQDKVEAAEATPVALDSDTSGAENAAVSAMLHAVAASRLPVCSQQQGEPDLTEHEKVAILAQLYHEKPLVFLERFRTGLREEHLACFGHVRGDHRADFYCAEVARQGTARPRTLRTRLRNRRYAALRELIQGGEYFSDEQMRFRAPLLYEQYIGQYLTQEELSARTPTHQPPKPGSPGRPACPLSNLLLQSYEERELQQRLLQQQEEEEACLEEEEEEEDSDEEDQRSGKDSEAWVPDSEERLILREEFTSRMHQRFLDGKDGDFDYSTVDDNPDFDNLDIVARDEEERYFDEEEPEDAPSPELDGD
# UniProt Q92968: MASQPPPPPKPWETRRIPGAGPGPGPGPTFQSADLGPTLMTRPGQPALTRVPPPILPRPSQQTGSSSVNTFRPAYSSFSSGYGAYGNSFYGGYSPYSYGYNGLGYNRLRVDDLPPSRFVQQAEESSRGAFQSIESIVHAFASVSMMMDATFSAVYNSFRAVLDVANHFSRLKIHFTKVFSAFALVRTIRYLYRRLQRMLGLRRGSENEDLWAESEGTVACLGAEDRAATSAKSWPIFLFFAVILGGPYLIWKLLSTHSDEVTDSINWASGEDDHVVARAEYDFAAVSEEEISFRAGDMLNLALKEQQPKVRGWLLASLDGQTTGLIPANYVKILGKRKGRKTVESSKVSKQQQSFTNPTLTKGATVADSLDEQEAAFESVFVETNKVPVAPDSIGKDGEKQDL
# UniProt Q96CT7: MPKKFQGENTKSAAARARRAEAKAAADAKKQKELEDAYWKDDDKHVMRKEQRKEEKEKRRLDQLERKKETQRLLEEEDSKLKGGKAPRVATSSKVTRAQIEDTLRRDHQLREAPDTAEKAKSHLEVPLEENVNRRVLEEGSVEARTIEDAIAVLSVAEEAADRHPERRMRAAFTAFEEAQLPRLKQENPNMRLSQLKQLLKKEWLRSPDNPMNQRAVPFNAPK
# UniProt Q96AD5: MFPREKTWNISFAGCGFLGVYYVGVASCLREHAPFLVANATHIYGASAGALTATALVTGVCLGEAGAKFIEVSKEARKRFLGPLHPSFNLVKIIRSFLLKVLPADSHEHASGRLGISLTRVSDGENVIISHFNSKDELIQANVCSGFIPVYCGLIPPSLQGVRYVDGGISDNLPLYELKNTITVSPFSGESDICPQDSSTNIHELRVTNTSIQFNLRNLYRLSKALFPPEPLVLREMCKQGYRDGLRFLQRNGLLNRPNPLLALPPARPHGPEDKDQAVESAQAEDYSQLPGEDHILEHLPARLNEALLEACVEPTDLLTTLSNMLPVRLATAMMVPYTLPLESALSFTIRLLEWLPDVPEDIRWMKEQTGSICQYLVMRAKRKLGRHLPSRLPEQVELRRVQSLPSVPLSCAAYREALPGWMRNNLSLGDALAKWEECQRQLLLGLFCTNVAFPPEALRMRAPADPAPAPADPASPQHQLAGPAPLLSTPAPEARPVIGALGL
# UniProt Q969H8: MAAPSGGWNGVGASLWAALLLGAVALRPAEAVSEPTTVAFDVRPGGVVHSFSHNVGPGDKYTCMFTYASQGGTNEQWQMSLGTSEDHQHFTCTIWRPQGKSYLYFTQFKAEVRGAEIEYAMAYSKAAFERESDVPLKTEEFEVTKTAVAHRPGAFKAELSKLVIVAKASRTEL
# UniProt Q96B01: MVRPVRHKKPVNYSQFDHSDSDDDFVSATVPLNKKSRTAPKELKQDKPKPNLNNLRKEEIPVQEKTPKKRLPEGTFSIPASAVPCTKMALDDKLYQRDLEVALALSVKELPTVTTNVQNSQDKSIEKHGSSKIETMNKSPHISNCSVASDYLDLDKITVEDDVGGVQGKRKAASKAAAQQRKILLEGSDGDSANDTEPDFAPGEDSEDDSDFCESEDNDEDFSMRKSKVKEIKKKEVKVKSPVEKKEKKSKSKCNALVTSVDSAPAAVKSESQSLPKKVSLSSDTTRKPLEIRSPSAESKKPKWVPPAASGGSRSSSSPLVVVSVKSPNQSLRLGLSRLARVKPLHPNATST
# UniProt Q96DU3: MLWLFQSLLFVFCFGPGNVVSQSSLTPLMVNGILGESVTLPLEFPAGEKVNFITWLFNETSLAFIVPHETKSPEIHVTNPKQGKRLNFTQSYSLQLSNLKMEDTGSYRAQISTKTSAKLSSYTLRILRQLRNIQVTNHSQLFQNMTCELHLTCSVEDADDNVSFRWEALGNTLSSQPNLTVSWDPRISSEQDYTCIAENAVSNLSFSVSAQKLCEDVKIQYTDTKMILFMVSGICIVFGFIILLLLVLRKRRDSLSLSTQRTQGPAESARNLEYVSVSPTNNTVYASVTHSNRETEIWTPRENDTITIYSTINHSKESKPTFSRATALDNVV
# UniProt Q96HC4: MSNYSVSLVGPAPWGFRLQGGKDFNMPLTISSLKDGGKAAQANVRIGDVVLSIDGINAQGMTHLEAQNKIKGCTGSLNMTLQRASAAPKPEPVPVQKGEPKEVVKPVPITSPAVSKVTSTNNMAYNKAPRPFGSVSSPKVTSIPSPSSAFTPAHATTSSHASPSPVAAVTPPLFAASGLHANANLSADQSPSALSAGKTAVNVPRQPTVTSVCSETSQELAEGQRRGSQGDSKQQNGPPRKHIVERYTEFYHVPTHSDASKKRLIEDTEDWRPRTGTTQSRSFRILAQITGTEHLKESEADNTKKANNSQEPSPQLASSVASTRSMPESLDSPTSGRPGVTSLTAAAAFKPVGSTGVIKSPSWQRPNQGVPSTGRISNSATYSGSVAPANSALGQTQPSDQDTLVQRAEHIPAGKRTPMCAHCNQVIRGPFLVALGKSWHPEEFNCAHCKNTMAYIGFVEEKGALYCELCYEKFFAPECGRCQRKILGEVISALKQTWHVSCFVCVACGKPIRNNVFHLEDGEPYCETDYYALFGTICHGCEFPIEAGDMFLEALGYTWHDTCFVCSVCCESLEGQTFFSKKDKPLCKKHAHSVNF
# UniProt Q96IZ0: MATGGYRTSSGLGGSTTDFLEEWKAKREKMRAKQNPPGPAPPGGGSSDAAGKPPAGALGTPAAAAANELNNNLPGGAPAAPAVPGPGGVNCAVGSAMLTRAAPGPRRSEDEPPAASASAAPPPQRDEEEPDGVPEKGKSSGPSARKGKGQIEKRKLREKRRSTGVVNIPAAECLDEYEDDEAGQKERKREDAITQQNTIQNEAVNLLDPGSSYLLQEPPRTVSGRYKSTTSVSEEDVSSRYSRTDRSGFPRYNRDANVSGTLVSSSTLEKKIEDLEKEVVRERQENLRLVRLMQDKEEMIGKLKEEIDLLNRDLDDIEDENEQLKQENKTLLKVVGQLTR
# UniProt Q96Q83: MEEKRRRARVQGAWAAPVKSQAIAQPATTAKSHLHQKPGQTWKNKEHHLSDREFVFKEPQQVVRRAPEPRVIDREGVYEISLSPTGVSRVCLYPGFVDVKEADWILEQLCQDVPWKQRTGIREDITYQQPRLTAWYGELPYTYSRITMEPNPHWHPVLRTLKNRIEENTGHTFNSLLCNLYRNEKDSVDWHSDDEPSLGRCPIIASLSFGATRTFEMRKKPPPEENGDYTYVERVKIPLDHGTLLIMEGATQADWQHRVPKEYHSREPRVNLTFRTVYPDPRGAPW
# UniProt Q96H79: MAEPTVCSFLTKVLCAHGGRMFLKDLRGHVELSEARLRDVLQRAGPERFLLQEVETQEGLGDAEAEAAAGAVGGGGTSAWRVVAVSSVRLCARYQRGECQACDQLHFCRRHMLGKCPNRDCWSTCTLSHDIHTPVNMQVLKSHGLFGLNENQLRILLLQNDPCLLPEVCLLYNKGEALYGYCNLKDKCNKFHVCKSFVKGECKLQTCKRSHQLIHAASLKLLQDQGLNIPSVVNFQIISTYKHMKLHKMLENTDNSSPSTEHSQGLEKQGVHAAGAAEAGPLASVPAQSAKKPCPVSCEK
# UniProt Q969Q5: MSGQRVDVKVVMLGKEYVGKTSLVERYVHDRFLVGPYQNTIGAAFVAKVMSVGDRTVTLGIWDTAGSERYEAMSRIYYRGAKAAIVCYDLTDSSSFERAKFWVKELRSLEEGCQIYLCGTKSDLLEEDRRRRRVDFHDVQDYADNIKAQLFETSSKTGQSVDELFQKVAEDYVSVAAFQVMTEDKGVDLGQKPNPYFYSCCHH
# UniProt Q96HW7, whole entry: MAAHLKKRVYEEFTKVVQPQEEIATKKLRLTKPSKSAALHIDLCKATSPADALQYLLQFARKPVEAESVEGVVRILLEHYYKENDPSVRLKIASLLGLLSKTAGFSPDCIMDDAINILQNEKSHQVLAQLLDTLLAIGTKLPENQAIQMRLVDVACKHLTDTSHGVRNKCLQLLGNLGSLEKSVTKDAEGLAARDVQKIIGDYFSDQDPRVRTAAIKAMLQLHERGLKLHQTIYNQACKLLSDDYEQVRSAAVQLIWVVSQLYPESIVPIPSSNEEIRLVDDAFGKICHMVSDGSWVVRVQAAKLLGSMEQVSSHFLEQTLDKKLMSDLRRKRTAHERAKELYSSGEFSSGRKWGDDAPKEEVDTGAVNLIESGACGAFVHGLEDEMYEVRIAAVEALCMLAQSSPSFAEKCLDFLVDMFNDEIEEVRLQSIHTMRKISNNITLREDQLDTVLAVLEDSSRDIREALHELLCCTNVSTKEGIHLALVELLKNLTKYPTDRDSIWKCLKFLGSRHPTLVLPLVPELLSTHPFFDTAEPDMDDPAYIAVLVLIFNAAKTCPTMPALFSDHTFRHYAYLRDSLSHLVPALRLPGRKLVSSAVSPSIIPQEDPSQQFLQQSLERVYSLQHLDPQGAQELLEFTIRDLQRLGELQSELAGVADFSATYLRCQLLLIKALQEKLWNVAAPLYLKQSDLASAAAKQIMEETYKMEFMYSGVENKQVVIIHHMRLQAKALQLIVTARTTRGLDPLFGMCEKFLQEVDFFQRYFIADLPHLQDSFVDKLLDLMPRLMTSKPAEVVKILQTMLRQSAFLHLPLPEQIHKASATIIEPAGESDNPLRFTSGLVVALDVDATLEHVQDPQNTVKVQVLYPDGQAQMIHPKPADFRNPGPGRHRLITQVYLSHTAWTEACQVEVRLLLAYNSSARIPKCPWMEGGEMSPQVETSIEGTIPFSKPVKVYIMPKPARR
# UniProt Q96DA2: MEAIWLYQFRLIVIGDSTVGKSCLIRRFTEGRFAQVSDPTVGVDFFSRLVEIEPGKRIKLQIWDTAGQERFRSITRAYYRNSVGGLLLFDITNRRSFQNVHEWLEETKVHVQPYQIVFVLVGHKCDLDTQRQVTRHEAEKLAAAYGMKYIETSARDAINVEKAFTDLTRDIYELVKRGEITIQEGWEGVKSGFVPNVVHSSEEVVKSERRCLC
# UniProt Q96AT9: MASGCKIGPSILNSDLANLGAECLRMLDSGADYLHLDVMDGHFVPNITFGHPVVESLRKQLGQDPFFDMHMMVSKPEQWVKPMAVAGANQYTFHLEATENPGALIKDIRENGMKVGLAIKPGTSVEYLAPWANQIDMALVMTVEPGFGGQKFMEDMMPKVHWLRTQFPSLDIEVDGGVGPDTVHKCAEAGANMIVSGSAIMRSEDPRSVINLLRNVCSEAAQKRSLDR
# UniProt Q96MG8: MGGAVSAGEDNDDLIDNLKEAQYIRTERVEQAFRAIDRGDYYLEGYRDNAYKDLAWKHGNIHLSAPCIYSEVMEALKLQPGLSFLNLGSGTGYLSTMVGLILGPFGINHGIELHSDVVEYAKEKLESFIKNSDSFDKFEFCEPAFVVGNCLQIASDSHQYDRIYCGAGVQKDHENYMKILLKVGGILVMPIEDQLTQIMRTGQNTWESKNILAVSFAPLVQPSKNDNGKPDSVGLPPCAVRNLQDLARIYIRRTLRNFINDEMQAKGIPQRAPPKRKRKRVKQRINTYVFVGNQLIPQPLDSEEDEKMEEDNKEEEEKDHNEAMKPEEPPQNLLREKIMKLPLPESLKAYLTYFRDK
# ± gives the standard deviation of the averaged measurements. Only a part is listed here, and it is no random draw.
# Compound: Nc1ncnc2c1ncn2[C@@H]1O[C@H](COP(=O)(O)OP(=O)(O)NP(=O)(O)O)[C@@H](O)[C@H]1O [adenylyl imidodiphosphate]
# Assay: NP40-soluble protein abundance relative to vehicle (solubility fold change) (ratio); higher = more soluble protein in presence of AMP-PNP
# Procedure, shortened: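 Data come from three independent experiments in which Dounce-homogenised Jurkat crude lysate was treated at eight concentrations from 0.1 to 10 mM. Treatment ran 10 min at room temperature and then 3 min at 37 °C, after which 0.8% NP40 and benzonase were added for 60 min at 4 °C before ultracentrifugation. The supernatant underwent TMT labelling and LC-MS/MS, and vsn-normalised intensities were expressed as fold change against the detergent-processed vehicle in each replicate.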
Target,NP40-soluble protein abundance (concentration: 1mM),NP40-soluble protein abundance (concentration: 2mM),NP40-soluble protein abundance (concentration: 4mM),NP40-soluble protein abundance (concentration: 6mM),NP40-soluble protein abundance (concentration: 8mM),NP40-soluble protein abundance (concentration: 10mM)
UniProt Q96CB8 and related entries,1.05 ± 0.063,1.11 ± 0.053,1.17 ± 0.1,1.19 ± 0.15,1.2 ± 0.12,1.24 ± 0.15
SYAP1 (UniProt Q96A49),1 ± 0.046,1.06 ± 0.077,0.952 ± 0.072,0.94 ± 0.021,0.94 ± 0.039,0.918 ± 0.08
UniProt Q969P0 and related entries,0.984 ± 0.041,0.984 ± 0.032,1 ± 0.034,1.03 ± 0.059,1.03 ± 0.04,1.04 ± 0.028
RBM33 (UniProt Q96EV2),1.05 ± 0.029,1.08 ± 0.026,1.04 ± 0.0083,1.06 ± 0.021,1.05 ± 0.022,1.08 ± 0.023
GLMN (UniProt Q92990),0.986 ± 0.03,0.961 ± 0.024,0.965 ± 0.031,0.93 ± 0.02,0.926 ± 0.021,0.875 ± 0.023
CCDC97 (UniProt Q96F63),0.981 ± 0.06,1.04 ± 0.043,0.978 ± 0.076,1 ± 0.052,0.984 ± 0.064,0.972 ± 0.027
ZNF622 (UniProt Q969S3),1.03 ± 0.013,1.04 ± 0.041,1.03 ± 0.029,1.08 ± 0.024,1.06 ± 0.042,1.12 ± 0.045
PEX13 (UniProt Q92968),0.932 ± 0.1,0.877 ± 0.017,1.02 ± 0.16,1.11 ± 0.066,1.12 ± 0.15,1.11 ± 0.12
CCDC124 (UniProt Q96CT7),1.13 ± 0.037,1.29 ± 0.15,1.35 ± 0.058,1.58 ± 0.12,1.86 ± 0.17,2.16 ± 0.25
PNPLA2 (UniProt Q96AD5),0.9996 ± 0.0052,0.969 ± 0.013,0.991 ± 0.013,0.963 ± 0.043,1 ± 0.011,0.967 ± 0.013
UniProt Q969H8,0.9848 ± 0.0052,0.915 ± 0.067,0.971 ± 0.03,1 ± 0.062,1.06 ± 0.05,0.97 ± 0.088
UniProt Q96B01 and related entries,1.02 ± 0.025,1.08 ± 0.0072,1.05 ± 0.021,1.06 ± 0.035,1.05 ± 0.051,1.07 ± 0.058
UniProt Q96GC5 and related entries,0.973 ± 0.08,1 ± 0.04,0.955 ± 0.11,0.992 ± 0.14,1 ± 0.1,1.05 ± 0.17
UniProt Q96F07-2,0.989 ± 0.049,0.97 ± 0.087,0.998 ± 0.031,0.938 ± 0.044,0.945 ± 0.033,0.921 ± 0.049
UniProt Q96P47 and related entries,1.02 ± 0.019,0.9959 ± 0.0076,1.01 ± 0.03,1 ± 0.072,1.04 ± 0.018,1.024 ± 0.0092
UniProt Q96AP4 and related entries,1.002 ± 0.0093,1 ± 0.022,0.992 ± 0.029,0.997 ± 0.027,0.99 ± 0.027,0.978 ± 0.028
UniProt Q96DU3 and related entries,0.988 ± 0.013,1.01 ± 0.086,0.992 ± 0.048,1.01 ± 0.062,1.01 ± 0.031,1.01 ± 0.059
PDLIM5 (UniProt Q96HC4),1.02 ± 0.024,1.03 ± 0.03,1.02 ± 0.032,1.01 ± 0.012,0.9688 ± 0.0086,0.994 ± 0.033
PAWR (UniProt Q96IZ0),1.006 ± 0.0082,1.07 ± 0.074,0.97 ± 0.034,0.991 ± 0.018,0.966 ± 0.011,0.971 ± 0.041
SMARCD1 (UniProt Q96GM5),1.01 ± 0.085,0.97 ± 0.12,1.03 ± 0.11,1.01 ± 0.12,1.03 ± 0.12,1.01 ± 0.12
ALKBH3 (UniProt Q96Q83),1.03 ± 0.029,1.05 ± 0.022,1.05 ± 0.05,0.998 ± 0.02,1 ± 0.015,1.04 ± 0.06
UniProt Q96ER3 and related entries,1.03 ± 0.048,1.01 ± 0.034,1 ± 0.042,0.9542 ± 0.0059,0.9253 ± 0.0025,0.941 ± 0.032
ZC3HAV1L (UniProt Q96H79),1.02 ± 0.03,0.994 ± 0.031,1.02 ± 0.077,1.07 ± 0.077,1.09 ± 0.075,1.09 ± 0.03
SNF8 (UniProt Q96H20),0.983 ± 0.05,0.995 ± 0.039,0.981 ± 0.048,0.957 ± 0.04,0.952 ± 0.031,0.926 ± 0.064
RAB24 (UniProt Q969Q5),0.996 ± 0.014,0.977 ± 0.019,0.998 ± 0.057,0.98 ± 0.035,0.998 ± 0.033,0.978 ± 0.05
INTS4 (UniProt Q96HW7),0.987 ± 0.012,0.976 ± 0.07,1.02 ± 0.054,1.04 ± 0.053,1.09 ± 0.072,1.05 ± 0.12
RAB39B (UniProt Q96DA2),1 ± 0.025,0.934 ± 0.066,0.996 ± 0.019,0.9868 ± 0.0097,0.986 ± 0.015,0.954 ± 0.041
UniProt Q96AT9 and related entries,1.09 ± 0.035,1.16 ± 0.088,1.08 ± 0.058,1.03 ± 0.013,1.01 ± 0.031,1.05 ± 0.1
PCMTD1 (UniProt Q96MG8),1.03 ± 0.034,1.01 ± 0.043,1.01 ± 0.021,1.01 ± 0.029,1 ± 0.043,0.992 ± 0.049
UniProt Q96PE3 and related entries,0.995 ± 0.045,0.936 ± 0.061,0.971 ± 0.012,0.959 ± 0.038,0.9689 ± 0.0027,0.943 ± 0.011

# Limited to NP40-soluble protein abundance (concentration: 1mM), NP40-soluble protein abundance (concentration: 8mM) and NP40-soluble protein abundance (concentration: 4mM), for some of the entries so far:
Target	NP40-soluble protein abundance (concentration: 1mM)	NP40-soluble protein abundance (concentration: 8mM)	NP40-soluble protein abundance (concentration: 4mM)
UniProt Q96GC5 and related entries	0.973 ± 0.08	1 ± 0.1	0.955 ± 0.11
PCMTD1 (UniProt Q96MG8)	1.03 ± 0.034	1 ± 0.043	1.01 ± 0.021
